According to patent US20160046678A1 (ZYNGENIA, published 2016):
Results are given in words; binding and its absence hold for the method and conditions named. Some results given as binding are weak or reduced against the parent protein; the word gives no strength.

Protein sequences, listed by entry. Tags and fused reporters are not part of them. Residues count along the entry.
UniProt P21860, residues 20-643: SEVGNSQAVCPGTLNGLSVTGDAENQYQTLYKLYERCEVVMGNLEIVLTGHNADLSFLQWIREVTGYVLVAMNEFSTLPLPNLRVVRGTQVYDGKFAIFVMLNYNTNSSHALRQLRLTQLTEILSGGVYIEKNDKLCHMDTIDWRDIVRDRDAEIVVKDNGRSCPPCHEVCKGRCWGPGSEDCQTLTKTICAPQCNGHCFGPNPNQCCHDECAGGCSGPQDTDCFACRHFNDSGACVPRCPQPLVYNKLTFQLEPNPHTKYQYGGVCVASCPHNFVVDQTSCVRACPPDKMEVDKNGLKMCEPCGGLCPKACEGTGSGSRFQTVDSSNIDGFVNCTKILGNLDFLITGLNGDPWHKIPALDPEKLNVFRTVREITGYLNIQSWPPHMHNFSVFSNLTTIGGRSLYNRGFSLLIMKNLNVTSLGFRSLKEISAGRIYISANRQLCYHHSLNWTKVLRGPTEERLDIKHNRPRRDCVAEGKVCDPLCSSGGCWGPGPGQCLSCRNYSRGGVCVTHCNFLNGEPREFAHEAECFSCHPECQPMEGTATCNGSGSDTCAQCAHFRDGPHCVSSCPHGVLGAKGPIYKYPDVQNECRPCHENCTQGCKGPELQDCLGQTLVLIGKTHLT

target: ErbB3 (UniProt P21860); test: MRD screen, Example 48

binding, binds:
KTGSCQAQKVFSWCAQWC [EGC253]
SAVRCPFHNPIWYSHCMKLL [EGC172]
KFFLCQVYPSGKYHICVSTW [EGC187]
QFMLCQVYPSKKWHVCVVTV [EGC274]
RAASCLDVFHCRRSWS [EGC234]
KFFLCQVYPSEKWHVCIERL [EGC197]
WCTECMRRFPGHYCVAFC [EGC222]
KFLMCQVYPSKKWHVCIETL [EGC273]
SSVVCVRGIHAWTCHFFV [EGC229]
IYILCTNFKPVFWCVFST [EGC238]
SPVRCPFQNPIWYEHCMALI [EGC171]
LERLCMEIFYVHCSGSI [EGC227]
ASYSCWWGPMYMECWTKV [EGC252]
GFIMCQVYPSLKWHVCVETS [EGC177]
QFMLCQVYPSKKWHVCVVPV [EGC264]
RFQMCKVYPSERWHVCVEIL [EGC199]
WGWRCYQSWSYQDCQYWY [EGC246]
SQAYCPFQNPIWWNHCMELI [EGC183]
CLSRCVDWVFSNCTSGR [EGC224]
PGYRCVFQVNYQCGAAF [EGC243]
RYQMCQVYPSGKWHVCMETI [EGC198]
KFQMCQVYPSGNWHVCVETM [EGC266]
PMVRCPFKNPVWYSHCLELL [EGC192]
LNYICWRWAHQVPWQCSLFQ [EGC251]
KFRMCQVYPSGKWHVCAETF [EGC186]
WLNCGCVVITCIVEPR [EGC245]
FLMLCRVSKYTIKCFSPL [EGC248]
KFFMCQVYPSLKWHVCMETL [EGC254]
TFFMCQVYPSGKWHVCVGGL [EGC196]
TIIRCFWTFHMDFVCVTGV [EGC244]
KFFMCQVYPSLKWHVWMETL [EGC269]
KFFMCQIYPSEKWHVCVKLW [EGC178]
AQVRCPFQNPVWYSHCMDLI [EGC174]
HVSICWGYTYCWQIF [EGC236]
RERTCVYFHKILHDFCPSRT [EGC267]
HLFLCQVYPSEKWHVCVETL [EGC185]
VEHLCSKIPFWHVQCLARF [EGC256]
AASLCPFQNPIWLAHCMEMM [EGC181]
SYLFCYTLYIDYNCWLWS [EGC242]
FKFTCYWAPYHTFCNTGQ [EGC268]
RAASCLDVFHWCHSWC [EGC223]
KFMMCQVYPSLKWHVCVETL [EGC255]
GSCALKNRSKCARRG [EGC265]
RGRDCLRSFPGHYCVTFR [EGC250]
LWIRCSLLQYSYYCSWVW [EGC239]
KFYMCQVYPSVRWHVCVDTS [EGC189]
TNIRCPFQNPIWYSHCIALT [EGC169]
RFVMCQVYPSAKWHVCVETL [EGC168]
YRHLCVWLMEQCETAR [EGC233]
LTSSCVYVYNWCAVWA [EGC232]
YFRMCQVYPSLKWHICVETM [EGC175]
KFQCARFTLPETGMFVSKL [EGC270]
FLMLCHVSKYTIKCFSPL [EGC225]
KFLMCQVYPSLKWHVCMETL [EGC259]
WYEQCMKRHHPQAFCLRFN [EGC272]
RGASCLDLFHWCHSWG [EGC237]
SWRMCIEMFLTHDECVRFV [EGC228]
QFLMCQVYPSLKWHVCVETL [EGC263]
TREICPFQNPIWRSHCLKLV [EGC191]
SKVYCPFQNPIWWSHCMELI [EGC182]
CLGSCMLKGFERWCIHGH [EGC276]
WALACSWTPRWHQCIFSL [EGC226]
GFFMCQVYPSEKWHVCLETL [EGC176]
